# From the supplement of paper PMC8728848
# The other results are listed elsewhere or left out.
# B1: LysMD3 (Homo sapiens), Q7Z3D4 (protein)
# chain: MAGRHQNRSFPLPGVQSSGQVHAFGNCSDSDILEEDAEVYELRSRGKEKVRRSTSRDRLDDIIVLTKDIQEGDTLNAIALQYCCTVADIKRVNNLISDQDFFALRSIKIPVKKFSSLTETLCPPKGRQTSRHSSVQYSSEQQEILPANDSLAYSDSAGSFLKEVDRDIEQIVKCTDNKRENLNEVVSALTAQQMRFEPDNKNTQRKDPYYGADWGIG
# How the values were obtained:
# Test in all cases: glycan array binding signal (z-score within array); higher = stronger binding
# Settings in all cases: glycan notation: IUPAC condensed, linker removed
# [1] = target: Gal(b1-3)GlcNAc(b1-6)GalNAc
# Outline: (§1)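 Glycan array binding is given as a within-array Z-score, which can be read as non-binding when negative. The arrays, 3228 of them, came from the Consortium for Functional Glycomics database and were retained only where the protein sequence was available. Z-scores were averaged across arrays of the same protein sequence at different concentrations or buffers and across linkers.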
# [2] = target: Gal(b1-3)GlcNAc(b1-6)[Gal(b1-3)]GalNAc
# Outline: as §1
# [3] = target: Gal(b1-3)GlcNAc6S
# Outline: as §1
# [4] = target: Gal(b1-3)[Fuc(a1-4)]GlcNAc
# Outline: as §1
# [5] = target: Gal(b1-3)[Fuc(a1-4)]GlcNAc(b1-2)Man
# Outline: as §1
# [6] = target: Gal(b1-3)[Fuc(a1-4)]GlcNAc(b1-2)Man(a1-3)[Gal(b1-3)[Fuc(a1-4)]GlcNAc(b1-2)Man(a1-6)]Man(b1-4)GlcNAc(b1-4)[Fuc(a1-6)]GlcNAc
# Outline: as §1
# [7] = target: Gal(b1-3)[Fuc(a1-4)]GlcNAc(b1-3)Gal(b1-3)[Fuc(a1-4)]GlcNAc
# Outline: as §1
# [8] = target: Gal(b1-3)[Fuc(a1-4)]GlcNAc(b1-3)Gal(b1-4)[Fuc(a1-3)]GlcNAc
# Outline: as §1
# [9] = target: Gal(b1-3)[Fuc(a1-4)]GlcNAc(b1-6)GalNAc
# Outline: as §1
# [10] = target: Gal(b1-3)[GlcNAc(b1-6)]GalNAc
# Outline: as §1
# [11] = target: Gal(b1-3)[Neu5Ac(a2-6)]GalNAc
# Outline: as §1
# [12] = target: Gal(b1-3)[Neu5Ac(a2-6)]GlcNAc(b1-4)Gal(b1-4)Glc
# Outline: as §1
# [13] = target: Gal(b1-3)[Neu5Ac(b2-6)]GalNAc
# Outline: as §1
# [14] = target: Gal(b1-4)Gal
# Outline: as §1
# [15] = target: Gal(b1-4)GalNAc(a1-3)[Fuc(a1-2)]Gal(b1-4)GlcNAc
# Outline: as §1
# [16] = target: Gal(b1-4)GalNAc(b1-3)[Fuc(a1-2)]Gal(b1-4)GlcNAc
# Outline: as §1
# [17] = target: Gal(b1-4)Glc
# Outline: as §1
# [18] = target: Gal(b1-4)Glc6S
# Outline: as §1
# [19] = target: Gal(b1-4)GlcNAc
# Outline: as §1
# [20] = target: Gal(b1-4)GlcNAc(a1-6)Gal(b1-4)GlcNAc
# Outline: as §1
# [21] = target: Gal(b1-4)GlcNAc(b1-2)Man
# Outline: as §1
# [22] = target: Gal(b1-4)GlcNAc(b1-2)Man(a1-3)Man(b1-4)GlcNAc(b1-4)GlcNAc
# Outline: as §1
binder,measurement,setting,value
B1,glycan array binding signal (z-score),[1],-0.673
same,glycan array binding signal (z-score),[2],0.213
same,glycan array binding signal (z-score),[3],-0.786
same,glycan array binding signal (z-score),[4],1.22
same,glycan array binding signal (z-score),[5],-0.333
same,glycan array binding signal (z-score),[6],-0.295
same,glycan array binding signal (z-score),[7],-0.551
same,glycan array binding signal (z-score),[8],0.366
same,glycan array binding signal (z-score),[9],-0.262
same,glycan array binding signal (z-score),[10],0.565
same,glycan array binding signal (z-score),[11],0.105
same,glycan array binding signal (z-score),[12],-0.417
same,glycan array binding signal (z-score),[13],0.205
same,glycan array binding signal (z-score),[14],-0.109
same,glycan array binding signal (z-score),[15],1.11
same,glycan array binding signal (z-score),[16],-0.217
same,glycan array binding signal (z-score),[17],-0.555
same,glycan array binding signal (z-score),[18],-0.057
same,glycan array binding signal (z-score),[19],0.257
same,glycan array binding signal (z-score),[20],0.599
same,glycan array binding signal (z-score),[21],-0.361
same,glycan array binding signal (z-score),[22],0.363

# Some of the entries above in another layout.
binder | measurement | setting | value
B1 | glycan array binding signal (z-score) | [1] | -0.673
same | glycan array binding signal (z-score) | [2] | 0.213
